# Measurements: paper PMC3517461
# By UniProt entry, the sequences of proteins in these tests, tags left out. Residues count along the entry.
# UniProt O75460, residues 19-977: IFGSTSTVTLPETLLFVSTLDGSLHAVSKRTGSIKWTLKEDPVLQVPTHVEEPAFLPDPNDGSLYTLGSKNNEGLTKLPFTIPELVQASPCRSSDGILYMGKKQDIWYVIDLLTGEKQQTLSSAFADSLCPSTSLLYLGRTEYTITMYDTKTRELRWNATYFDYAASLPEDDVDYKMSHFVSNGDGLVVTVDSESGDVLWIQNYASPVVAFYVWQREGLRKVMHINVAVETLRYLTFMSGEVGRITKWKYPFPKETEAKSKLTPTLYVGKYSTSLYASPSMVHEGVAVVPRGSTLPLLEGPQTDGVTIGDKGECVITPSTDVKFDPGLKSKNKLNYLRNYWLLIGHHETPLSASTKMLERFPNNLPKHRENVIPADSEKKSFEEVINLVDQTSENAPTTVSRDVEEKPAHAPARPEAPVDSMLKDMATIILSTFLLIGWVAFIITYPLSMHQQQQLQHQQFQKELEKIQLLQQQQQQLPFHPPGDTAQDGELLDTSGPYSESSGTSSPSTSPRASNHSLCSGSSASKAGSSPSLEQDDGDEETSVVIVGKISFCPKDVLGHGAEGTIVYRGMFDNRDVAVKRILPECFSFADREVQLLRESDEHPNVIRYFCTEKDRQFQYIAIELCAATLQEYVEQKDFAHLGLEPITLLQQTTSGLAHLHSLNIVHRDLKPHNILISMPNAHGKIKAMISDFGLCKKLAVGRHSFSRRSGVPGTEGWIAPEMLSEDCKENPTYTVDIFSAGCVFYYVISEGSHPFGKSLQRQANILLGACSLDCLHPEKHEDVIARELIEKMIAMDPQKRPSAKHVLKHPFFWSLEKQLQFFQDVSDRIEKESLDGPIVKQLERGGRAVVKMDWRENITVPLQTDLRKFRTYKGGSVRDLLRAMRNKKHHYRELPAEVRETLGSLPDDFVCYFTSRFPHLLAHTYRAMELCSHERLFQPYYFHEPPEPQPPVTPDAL
# These are yes or no findings as the source states them, for the method shown. Binding seen in cells or lysates may run through a third protein. Where a sequence is shown, tags or fusion partners need not be part of it.
# B1: mouse Amy1, 3x Flag-tagged (pCAX-mAmy1-Flag) (protein, UniProt P00687 16-511)
# chain: QYDPHTQYGRTAIVHLFEWRWVDIAKECERYLAPNGFAGVQVSPPNENIVVHSPSRPWWERYQPISYKICSRSGNEDEFRDMVNRCNNVGVRIYVDAVINHMCGVGAQAGQSSTCGSYFNPNNRDFPGVPYSGFDFNDGKCRTASGGIENYQDAAQVRDCRLSGLLDLALEKDYVRTKVADYMNHLIDIGVAGFRLDASKHMWPGDIKAILDKLHNLNTKWFSQGSRPFIFQEVIDLGGEAVSSNEYFGNGRVTEFKYGAKLGKVMRKWDGEKMSYLKNWGEGWGLMPSDRALVFVDNHDNQRGHGAGGASILTFWDARLYKMAVGFMLAHPYGFTRVMSSYYWPRNFQNGKDVNDWVGPPNNNGKTKEVSINPDSTCGNDWICEHRWRQIRNMVAFRNVVNGQPFANWWDNDSNQVAFGRGNKGFIVFNNDDWALSETLQTGLPAGTYCDVISGDKVDGNCTGIKVYVGNDGKAHFSISNSAEDPFIAIHAESKI
# Biological target: human IRE1α, 3x HA-tagged (pCAG-hIRE1α-HA), wild type (human) (UniProt O75460)
# Experiment: co-IP; HEK293T cells co-transfected with Flag-tagged model protein and HA-tagged IRE1; lysis in TNE buffer (10 mM Tris-HCl pH 7.5, 1% NP-40, 150 mM NaCl, 1 mM EDTA); anti-HA (12CA5) immunoprecipitation on protein G Sepharose; anti-Flag Western blot
binder,measurement,value
B1,binding,no binding
